This is an account of results in article PMC10217356.

The target of this assay is T1, FtsZ-GFP (Synechococcus elongatus PCC7942) (UniProt O85785).
T1 sequence: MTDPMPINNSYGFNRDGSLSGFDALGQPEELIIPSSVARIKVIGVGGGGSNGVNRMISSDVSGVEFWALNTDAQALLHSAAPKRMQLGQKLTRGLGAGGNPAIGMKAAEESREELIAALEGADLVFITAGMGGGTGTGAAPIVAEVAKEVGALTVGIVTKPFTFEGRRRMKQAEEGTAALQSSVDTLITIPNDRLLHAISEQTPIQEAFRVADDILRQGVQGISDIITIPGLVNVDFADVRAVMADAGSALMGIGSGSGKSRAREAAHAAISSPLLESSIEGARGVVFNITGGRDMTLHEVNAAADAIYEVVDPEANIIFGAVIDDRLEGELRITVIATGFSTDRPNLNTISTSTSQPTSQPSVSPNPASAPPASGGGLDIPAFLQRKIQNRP
Nature of the assay: affinity purification with mass spectrometry; FtsZ-GFP as bait; total protein extracts (4 mg/IP) of S. elongatus cells of the exponential, stationary and late stationary phase; anti-GFP antibody-coupled magnetic beads, trypsin digest in column, LC-MS/MS; non-antibody and GFP negative controls; three repetitions.

Results are given in words; binding and its absence hold for the method and conditions named. Binding seen in cells or lysates may run through a third protein. These calls come from enrichment with a bait or labelling near it, and not all partners need be listed. Tags and fused reporters may be left off the sequences shown.

B1: 30S rib prot S6 (protein, UniProt Q31SC5 1-107)
chain: MKDFYYETMYILRADLTEEQVEQAIAKYQTLLTEAGAEVQDTQHRGKRRLAYLINKQREGIYVQINYTGDGSQIAPLERALRLSEEVLRFLTVKQEVRPPAPVAVEA
As to B1, the binding entry is on record as “binds”.

B2: ATPase (protein, UniProt Q31PP8 1-569)
chain: MLRLDRISKIYPTGEVLRDVSWEVKPGDRIGLVGVNGAGKSTQMRIIAGLEEATSGEIIRPSSLKIAYLQQEFDIDPERTVREELWQAFGEATTVFNQLSEVEHQMQTAEPEQLDDLIHQLDRLQRRFEALDGYAIDARIAKLLPDLGFGLEDGDRSVAAFSGGWQMRMGLGKILLQEPDLLLLDEPTNHLDLETIEWLETYLKGLSQPMVIISHDREFLDRLCTQIVETERGVARTYLGNYSDYLTQKELEKTAQFAAFERQQKELAEQQAFIDRFRASATRSTQAKSREKQLEKVERIEAPEDNLRGIQFRFPPAPRSGREVVMIEDLTHAYNDKILFLGAELLIERGDRIAFLGPNGAGKSTLLRLILGREPLLEGKVELGAHQVIPSYFEQNQAEALDLEKTVLDTIHDEVPSWKDSEVRTLLGSFCFRSDTVFKKVGALSGGEKARLALAKMLLQPANLLILDEPTNHLDIPAKEMLEEALREYEGTALIVSHDRYFVSRVANKIVEIRDGEFRVYAGDYHYYLEQIQLKKERERLAAIEAEKASKAAAKRAKQKAKQQERRQS
As to B2, the binding result is recorded as “binds”.

B3: DNA gyrase subu B (protein, UniProt Q8GIT7 1-645)
chain: MANEYGASQIQVLEGLEPVRKRPGMYIGSTGPKGLHHLVYEVVDNAVDEALAGYCNTIDVRLLEDGSCQVTDNGRGIPTDIHPQTGKSALETVLTILHAGGKFGGGGYKVSGGLHGVGVSVVNALSEYVEVTVWREGKTHQQRFEQGNPIGELQVAPDADDRRGTQVRFKPDATIFSETTEFDYGTLASRLKELAYLNAGVRIDFTDERLQLTKNHEPHQETYYFEGGIREYVAYMNTDKQALHSEIIFVQSEKDGVQVEAALQWCVDAYSDNILGFANNIRTIDGGTHIEGLKTVLTRTMNTIARKRNKRKDADNNLSGENIREGLTAIVSVKVPDPEFEGQTKTKLGNTEVRGIVDTLVGETLTEYLEFHPSVADLILEKAIQAFNAAEAARRARELVRRKSVLESSTLPGKLADCSSRDPGESEIFIVEGDSAGGSAKQGRDRRFQAILPLRGKILNIEKTDDAKIYKNTEIQALITALGLGIKGEEFDASQLRYHRIVIMTDADVDGAHIRTLLLTFFYRYQRSLLEQGYIYIACPPLYKLERGRNHYYCYNERELQERIATFPENANYTIQRFKGLGEMMPQQLWETTMDPETRTMKRVEIEDAAEADRIFTILMGDRVQPRREFIETYGPQLSMAALDI
Take B3: the binding entry is listed as “binds”.

B4: Inorganic pyrophosphatase (protein, UniProt Q31NF6 1-170)
chain: MDLSRIPAQPKPGLVNVLIEIPGGSKNKYEFDKDLNAFALDRVLYSSVQYPYDYGFIPNTLADDGDPLDGMVILDQPTFPGCVIAARPIGMLEMIDGGDRDEKLLCVPAKDPRYAEVKTLSDLAPHRLEEIAEFFRSYKNLEKKVTEILGWKGPETVQALVDECIKAYNA
Take B4: the binding result is on record as “binds”.

B5: L7/12 (protein, UniProt Q31QK6 1-128)
chain: MSAKTDEILESLKTLTLLEAAELVKQIEEAFGVSAAAPVGGVVVAAAAGAAAEAVEEKTEFDVVLEEVPADKKIAVLKVVRGITGLGLKEAKDLVEAAPKPIKEGVSKDDAEAAKKELEEAGAKVSVK
In the case of B5, the binding result is “binds”.

B6: L29 (protein, UniProt Q31L15 1-64)
chain: MALPKIEDVRNLSDADLAEKIAEAKRELFDLRFQRATRQLEKPHLFKHTKHRLAQLLTVERERQ
For the molecule B6, the binding result is reported as “binds”.

B7: Bicarbonate transport (protein, UniProt Q55107 1-663)
chain: MSLFVAVENIEKSFPLSGGNEYLALKGIDLEIKQGEFISLIGHSGCGKSTLLNLIAGLELPTDGAVSLEGQQITAPGPDRMVVFQNYSLFPWLTVRENIALAVDEVLRDLPKEERQAIVEEHIQLVGLGHAADKPPAQLSGGMKQRVAIARGLATRPKLLLLDEPFGALDALTRGNLQEKLMQICEENHVTAVMVTHDVDEAVLLSDRIVMLTNGPGSKIGGILEVDIPRPRKRMDVVHHPSYYSLRSEIIYFLNQQKRVKKLNARKVTTVARHGLEKVNLEIGYVPLMACAPLVVAQEKAFFAKHGLDEVSLVRETSWRGIVDGLTENYLDAAQMPAGMPVWMSVGGQGGSPLPIVSSLTMSRNGNGITLSKALYDEGIQTVDDFRNLLRSTADKQHIMGIVHPASMHNLLLRYWLAANQIDPDRDVQLRTIPPAQMVADLKDGTIDGYCIGEPWNAWAAQKEIGFTIASDLEIWNGHPGKVLGVREDWANRYPNSHVALVKALLEACQYCEDPANWDELRELLSDRRYLSCPKEYIQFSQSTADDLAVPHHRFAGAGVNRPSRTEHLWMMTQLARWGDVPFPRNWVEILERVCRVGVFSTAARELGLSEVVNYQRSTPVELFDGVPFNAEDPIAYLNSLPIHRDFSVAEIALDQPRPIAAA
For the molecule B7, the binding result is reported as “binds”.

B8: DNA polI (protein, UniProt Q31RU3 1-953)
chain: MSVDSPLLLLVDGHSLAFRSYYAFAKGRDGGLRTRTGIPTSVCFGFLKALLEVMEQQQPKALAIAFDLGGPTFRHEADENYKANRDEAPEDFKIDTDNLVALLQTLNLPILVEPGYEADDLLGTVAQRGAEAGYRVRILSGDRDLFQLVDPEGAIRVLYLGNTFGRSANREAAREIDPAAVIDKLGVPPEQVIDFKALCGDSSDNIPGVKGIGPKTAVDLLQAWGDLDRIYDNLEAIKPAVRKKLESDREAAYHSRKLAQIVTDIPLAIDWDHYALTGFDEQEVLPWLEKLELQAFRRQVDRLQQLFGGQPPTVEALSDESLDFWTAEETAAQQPRWPQLQPQIITTAAALTDLVTLLEQRDSPEAIVAWDTETTDLDPRLAQLVGIGCAWGEEPDQLAYIPLGHEEGEQLPLQTVLTALRPILESDRHPKALQNAKFDRLILRHQGIELAGVVFDTMLASYLLNPSLGHSLDALADRWLKLQTRSYSDLVPKGKTIAQVAIAAVAQYCGSDVHVVQRLIPLLKAGIAESPALQFLLETVELPLEAVLAEMEDRGIRIDEGYLAELSEHLKGELDRLEGAAHTLAGDRFNLGSPKQLSELLFEKLGLNVKKSRKTKTGYSTDAAVLEKLQGDHPIIDLILEHRTLAKLKSTYVDALPSLVAADGRIHTDFNQAVTATGRLSSSNPNLQNIPIRTEFSRQIRKAFLPREGWLLAAADYSQIELRILAHLSQEPVLLEAYRQGDDVHRLTASLLFDREEITSEERRIGKIINFGVIYGMGAQRFARETGSSTKEAQGFIDRFYDRYPRVFTYLQSLERQAIARGYVETVLGRRRYFDFEDTGLQKLRGSDPESIDLDKIRPSRFEAQLLRAAANAPIQGSSADIIKVAMVQLQALLQSYQARMLLQVHDELVLELPPEEWDSLAPQIQQTMEQAVQLTVPLAVELHAGHNWMEAK
Turning to B8, the binding result is recorded as “binds”.

B9: 50S rib. prot L18 (protein, UniProt Q31L22 1-120)
chain: MKVSRRESTRRRHRRVRRTIVGTPARPRLSVFRSNNHIYAQVIDDAAGHTLAAASSLDPDLRQSLTSGGNQQASAAVGKLIAERAQAKGVTTVVFDRGGNLYHGRVKALAEAAREAGLEF
For B9, the binding result is “binds”.

B10: DNA gyrase subu A (protein, UniProt Q31RN3 1-856)
chain: MSAQERIIQTDLRNEMSRSYLEYAMSVIVGRALPDARDGLKPVHRRILYAMYELGLTPDRPFRKCARVVGEVLGKYHPHGDTAVYDALVRMAQDFSMRSPLIDGHGNFGSIDNDPPAAMRYTESRLKPLTTDGLLQDIEAETVDFSDNFDGSQQEPTVLPARLPQLLLNGSSGIAVGMATNIPPHNPTELIAGVIALIHNPEISDRELMRHIPGPDFPTGGQVLGSAGIRDAYLTGKGSITMRGVATIDTIEAPGRPVRDAIIITELPYQTNKAALIERIAEMVNEKRLEGISDIRDESDRDGMRIVIELKRDAYPQVVLNNLYKQTPLQSNFSANMLALVDGEPVLLTLKRSLEVFLDFRIETIERRTRYELRKAEERDHLLQGLLIALGNLDAIIELIRRSADAPRAKQELIDVYGLSEVQSDAILQMQLRRLTALEAEKIEQEHQDLQRRIEDYRDILARRERVLEIIETELEQLQQRFQEPRRTTLLEADGELETIDLIANEKSILLLTQQGYIKRMPVNEFTAQSRGTRGKAGAKTKDDDSVEHFLTCCDHDNILFFSDRGVVYNLPAYRIPAASRNARGVPIVQLLPIPREERITSIVPVSAFSDDEYLVMLTQGGYIKKTALSAFANIRSNGLIAIALSEGDQLRWVRLAKPEDSILIGSRKGMTIHFRASHDDLRPLGRATRGVRAMSLRSGDTLISMDVLPASLTANMTETGDEDEADDAVEVVASPGPWVLVVTAQGLGKRVPVHQFRLQKRAGLGLRAIKFRSKQDELVSLRIVESGDELVMISQRSVIIRQASDAIPQQSRAATGVRVQRLDADDVLAAVALVPPGEEELDETSEDAIASDEPN
Turning to B10, the binding result is on record as “binds”.

B11: L20 (protein, UniProt Q31NR2 1-116)
chain: MARVKRGNVARKRRNKILKLAKGFRSGNSKLFRTANQRVMKALTNAYRDRRRRKRDFRRLWIARINAAARLHGVSYSRLIGALKKADIQINRKMLAQLAVLDSAGFKAIVDLALKA
For the molecule B11, the binding entry is “binds”.

B12: SphX (protein, UniProt P39665 31-337)
chain: SAQRALVTADGSSTVFPISEAVAEEFQKRNKNINVTVGVSGTGGGFKRFCNGEIDIANASRPIKKEEVEACRKKGIRYIELPVAFDALTVVVNKSNPVNSITTAELAKIFGRDAEKKTTNWRQVKSSFPNLPLRVYAPGTDSGTYDYFNEAILNKKGTRGDLTASEDDNILVQGVSRDRGGIGFFGFSYYEENKGKLKALAVVNSNGKAVMPSVQNVLNGTYDPLARPVFIYVSEQAAKKANVRSFVNFYLQNAGKLSREVGFVPLPAKAYTAATQRFRSNKTGTVFAGKSLVGGSIEDLLKAEGIN
Turning to B12, the binding result is on record as “binds”.

B13: MreB (protein, UniProt Q31RI7 1-345)
chain: MSILRRFSLSRDMGIDLGTANTLVYVSGKGIVLQEPSVVAIDQNLKKPLAVGSEAKLMLGRTPGSVAALRPLRDGVIADFDAAELMLKHFIRQVQEGRSGVARVVIGIPSGVTGVERRAVMEAATQAGAREVYLIDEPVAAAIGAGLPVAEPTGTMIVDIGGGTTEVAVMSLQGIVLSDSVRVAGDELSEAIAQYLKKVHNLVIGERTSEEIKIMVGSAFPDNEFDETTMEVRGLHLLSGLPRTVTIKAAEVRESMAEPLNVIVEAVKRTLEKTPPELAADIVDRGIVLAGGGALVRGLDELISHETGIITHIAPDPLSCVVLGTGRVLENFKSLERVFSASSRA
B13: the binding result is “binds”.
